Experimental data: patent US20260108607A1
Results are given in words; binding and its absence hold for the method and conditions named. Some binding calls cover weakened binding; strength is not graded here.

How the values were obtained:
[1] = target: EGFRvIII target antigen (SPR ligand) (UniProt P00533); assay: SPR
[2] = target: EGFRvIII target antigen (SPR ligand) (UniProt P00533); assay: SPR, 1:1 binding fit
[3] = target: EGFRvIII overexpressed on target cells (UniProt P00533); assay: flow cytometry of the subclone supernatant on F98npEGFRvIII cells (Geom mean)
[4] = target: EGFRvIII target antigen (SPR ligand) (UniProt P00533); assay: SPR, 1:1 binding fit (target EGFRvIII by the legend and Table 3; not in the panel title)

binding [2]	binding [4]	Binder	other results
–	binds	chimeric-VH + VL of clone 20-2-40-2 (98G2E9) (antibody, V domains shown) VH: EVLLVESGGGLVKPGGSLKLSCAASGFTFSGYAMSWVRQTPEKRLEWVATITSGGSYTYYPDSVKGRFTISRDNAKNTLYLQMSSLRSEDTAMYYCARKDYGNYWFAYWGQGTLVTVSA VL: DVVMTQTPLSLPVSLGDQASISCRSSQSLVHSDGNTYLHWYLQKPGQSPKLLIYKVSNRFSGVPDRFSGSGSGTDFTLKISRVEAEDLGVYFCSQTTQVPWTFGGGTKLEIK	–
binds	–	humanized antibody 28-H3 (84C3G8H7-VH3 + VL1) (scFv) scFv: QVQLVQSGAEVKKPGASVKVSCKASGFNIKDYYMHWVRQAPGQRLEWIGWIDPENGNTIYDPKFQGRATITADTSASTAYMELSSLRSEDTAVYYCARGWFAYWGQGTLVTVSSGGGGSGGGGSGGGGSGGGGSDIVMTQSPDSLAVSLGERATINCKSSQSLLNSSNQKNHLAWYQQKPGQPPKLLIYFASTRASGVPDRFSGSGSGTDFTLTISSLQAEDVAVYYCQQHYSTPLTFGGGTKLELK	–
binds	–	humanized antibody 28-H5 (84C3G8H7-VH4 + VL1) (scFv) scFv: QVQLVQSGAEVKKPGASVKVSCKASGFNIKDYYMHWVKQAPGQRLEWIGWIDPENGNTIYDPKFQGRATITADTSANTAYMELSSLRSEDTAVYYCARGWFAYWGQGTLVTVSSGGGGSGGGGSGGGGSGGGGSDIVMTQSPDSLAVSLGERATINCKSSQSLLNSSNQKNHLAWYQQKPGQPPKLLIYFASTRASGVPDRFSGSGSGTDFTLTISSLQAEDVAVYYCQQHYSTPLTFGGGTKLELK	–
binds	–	humanized antibody 28-H8 (84C3G8H7-VH3 + VL2(PTM)) (scFv) scFv: QVQLVQSGAEVKKPGASVKVSCKASGFNIKDYYMHWVRQAPGQRLEWIGWIDPENGNTIYDPKFQGRATITADTSASTAYMELSSLRSEDTAVYYCARGWFAYWGQGTLVTVSSGGGGSGGGGSGGGGSGGGGSDIVMTQSPDSLAVSLGERATINCKSSQSLLNSSNQKNHLAWYQQKPGQPPKLLVYFASTRGSGVPDRFSGSGSGTDFTLTISSLQAEDVAVYFCQQHYSTPLTFGGGTKLELK	–
–	binds	humanized antibody 40-2-H12 (98G2E9-VH6 + VL5) (scFv) scFv: EVQLLESGGGLVQPGGSLKLSCAASGFTFSGYAMSWVRQTPEKGLEWVATITSGGSYTYYPDSVKGRFTISRDNAKNTLYLQMNSLRAEDTAMYYCARKDYGNYWFAYWGQGTLVTVSSGGGGSGGGGSGGGGSGGGGSDVVMTQSPLSLPVTLGDPASISCRSSQSLVHSDGNTYLHWYLQRPGQSPRLLIYKVSNRFSGVPDRFSGSGSGTDFTLKISRVEAEDVGVYFCSQTTQVPWTFGGGTKLEIK	–

Second part, the binder before the results:

Binder	binding [2]	binding [4]	other results
murine antibody 20-2-1 (clone 83F7B2) (antibody, V domains shown) VH: QIQLVQSGPELKKPGETVKISCKASGYTFTDFSMHWVKQAPGKGLKWMGWINTETGEPSYADDFKGRFAFSLETSASTAYLQINNLKNEDTATYFCANYGYDVRGDYWGQGTTLTVSS VL: EIVLTQSPTTMAASPGEKITITCSASSSISSNYLHWYQQKPGFSPKLLIYGTSNLASGVPARFSGSGSGTSYSLTIGTMEAEDVATYYCHQGSSIPLTFGAGTKLELK	binds	–	binding [1]: binds
20-2-37 (antibody, V domains shown) VH: EVMLVESGGGLVKPGGSLKLSCAASRFTFSNYAMSWVRQTPEKRLEWVATITSGGSYTYYPDSVKGRFTISRDNAKNTLYLQMSSLRSEDTAMYYCARKDYGNYWFAYWGQGTLVTVSA VL: DVVMTQTPLSLPVSLGDQASISCRSSQSLVHSDGNTYLHWYLQKPGQSPKLLIYKVSNRFSGVPDRFSGSGSGTDFTLKISRVEAEDLGVYFCSQSIHVPWTFGGGTKLEIK	–	–	binding [3]: binds
humanized antibody 28-H9 (84C3G8H7-VH4 + VL1(PTM)) (scFv) scFv: QVQLVQSGAEVKKPGASVKVSCKASGFNIKDYYMHWVKQAPGQRLEWIGWIDPENGNTIYDPKFQGRATITADTSANTAYMELSSLRSEDTAVYYCARGWFAYWGQGTLVTVSSGGGGSGGGGSGGGGSGGGGSDIVMTQSPDSLAVSLGERATINCKSSQSLLNSSNQKNHLAWYQQKPGQPPKLLIYFASTRGSGVPDRFSGSGSGTDFTLTISSLQAEDVAVYYCQQHYSTPLTFGGGTKLELK	binds	–	–
humanized antibody 28-H4 (84C3G8H7-VH3 + VL2) (scFv) scFv: QVQLVQSGAEVKKPGASVKVSCKASGFNIKDYYMHWVRQAPGQRLEWIGWIDPENGNTIYDPKFQGRATITADTSASTAYMELSSLRSEDTAVYYCARGWFAYWGQGTLVTVSSGGGGSGGGGSGGGGSGGGGSDIVMTQSPDSLAVSLGERATINCKSSQSLLNSSNQKNHLAWYQQKPGQPPKLLVYFASTRASGVPDRFSGSGSGTDFTLTISSLQAEDVAVYFCQQHYSTPLTFGGGTKLELK	binds	–	–
humanized antibody 28-H7 (84C3G8H7-VH3 + VL1(PTM)) (scFv) scFv: QVQLVQSGAEVKKPGASVKVSCKASGFNIKDYYMHWVRQAPGQRLEWIGWIDPENGNTIYDPKFQGRATITADTSASTAYMELSSLRSEDTAVYYCARGWFAYWGQGTLVTVSSGGGGSGGGGSGGGGSGGGGSDIVMTQSPDSLAVSLGERATINCKSSQSLLNSSNQKNHLAWYQQKPGQPPKLLIYFASTRGSGVPDRFSGSGSGTDFTLTISSLQAEDVAVYYCQQHYSTPLTFGGGTKLELK	binds	–	–
humanized antibody 40-2-H9 (98G2E9-VH5 + VL5) (scFv) scFv: EVQLLESGGGLVQPGGSLKLSCAASGFTFSGYAMSWVRQTPGKGLEWVATITSGGSYTYYPDSVKGRFTISRDNSKNTLYLQMNSLRAEDTAMYYCARKDYGNYWFAYWGQGTLVTVSSGGGGSGGGGSGGGGSGGGGSDVVMTQSPLSLPVTLGDPASISCRSSQSLVHSDGNTYLHWYLQRPGQSPRLLIYKVSNRFSGVPDRFSGSGSGTDFTLKISRVEAEDVGVYFCSQTTQVPWTFGGGTKLEIK	–	binds	–
humanized antibody 40-2-H11 (98G2E9-VH5 + VL7) (scFv) scFv: EVQLLESGGGLVQPGGSLKLSCAASGFTFSGYAMSWVRQTPGKGLEWVATITSGGSYTYYPDSVKGRFTISRDNSKNTLYLQMNSLRAEDTAMYYCARKDYGNYWFAYWGQGTLVTVSSGGGGSGGGGSGGGGSGGGGSDVVMTQSPLSLPVTLGDQASISCRSSQSLVHSDGNTYLHWYLQKPGQSPKLLIYKVSNRFSGVPDRFSGSGSGTDFTLKISRVEAEDVGVYFCSQTTQVPWTFGGGTKLEIK	–	binds	–
humanized antibody 40-2-H13 (98G2E9-VH6 + VL6) (scFv) scFv: EVQLLESGGGLVQPGGSLKLSCAASGFTFSGYAMSWVRQTPEKGLEWVATITSGGSYTYYPDSVKGRFTISRDNAKNTLYLQMNSLRAEDTAMYYCARKDYGNYWFAYWGQGTLVTVSSGGGGSGGGGSGGGGSGGGGSDVVMTQSPLSLPVTLGQQASISCRSSQSLVHSDGNTYLHWYLQKPGQSPKLLIYKVSNRFSGVPDRFSGSGSGTDFTLKISRVEAEDVGVYFCSQTTQVPWTFGGGTKLEIK	–	binds	–
humanized antibody 40-2-H10 (98G2E9-VH5 + VL6) (scFv) scFv: EVQLLESGGGLVQPGGSLKLSCAASGFTFSGYAMSWVRQTPGKGLEWVATITSGGSYTYYPDSVKGRFTISRDNSKNTLYLQMNSLRAEDTAMYYCARKDYGNYWFAYWGQGTLVTVSSGGGGSGGGGSGGGGSGGGGSDVVMTQSPLSLPVTLGQQASISCRSSQSLVHSDGNTYLHWYLQKPGQSPKLLIYKVSNRFSGVPDRFSGSGSGTDFTLKISRVEAEDVGVYFCSQTTQVPWTFGGGTKLEIK	–	binds	–
